Measured values taken from patent US20220348584A1, “PERK INHIBITING INDOLINYL COMPOUNDS” (HiberCell, Inc., priority 2019, published 2022).
Some of these results come from one statement about several compounds together.

Legend:
HEK293-EGFP-eIF2a cells = experiment: PERK Cellular Assay (TR-FRET, GFP-eIF2α, tunicamycin-induced ER stress); assay type: cell-based, human; conditions: statement in words
Procedure: Stable cell lines were created in HEK293 cells using lentiviral particles harboring an expression vector for GFP-eIF2α. Cells were selected using puromycin and enriched using fluorescence activated cell sorting against GFP. HEK293-EGFP-eIF2a cells were plated at 5000 cells/well in 384-well assay plates and incubated overnight at 37° C., 5% CO2. Inhibitor compounds were added to the wells by Echo acoustic dispensing and incubated for 30 minutes at 37° C., 5% CO2 prior to induction of ER stress by addition of tunicamycin to […] for 2 hours. Cells were lysed and TR-FRET was measured in an EnVision plate reader (PerkinElmer). FRET ratio data was normalized to signal from lysates treated with DMSO vehicle control and plotted as percent inhibition against 10-point; 3-fold dilution series of inhibitors. IC50 values were calculated using 4-parameter logistical fitting in XLFit.

[1] = biological target: T1, EIF2AK3 (PERK) catalytic domain (amino acids 536-1116) (Homo sapiens, UniProt Q9NZJ5); experiment: PERK In Vitro Activity Assay (Isolated), TR-FRET kinase assay; assay type: biochemical; conditions: statement in words
T1 construct: EIF2AK3 (PERK) catalytic domain (amino acids 536-1116); purchased Invitrogen, Carlsbad, Calif
T1 sequence (Q9NZJ5 536-1116): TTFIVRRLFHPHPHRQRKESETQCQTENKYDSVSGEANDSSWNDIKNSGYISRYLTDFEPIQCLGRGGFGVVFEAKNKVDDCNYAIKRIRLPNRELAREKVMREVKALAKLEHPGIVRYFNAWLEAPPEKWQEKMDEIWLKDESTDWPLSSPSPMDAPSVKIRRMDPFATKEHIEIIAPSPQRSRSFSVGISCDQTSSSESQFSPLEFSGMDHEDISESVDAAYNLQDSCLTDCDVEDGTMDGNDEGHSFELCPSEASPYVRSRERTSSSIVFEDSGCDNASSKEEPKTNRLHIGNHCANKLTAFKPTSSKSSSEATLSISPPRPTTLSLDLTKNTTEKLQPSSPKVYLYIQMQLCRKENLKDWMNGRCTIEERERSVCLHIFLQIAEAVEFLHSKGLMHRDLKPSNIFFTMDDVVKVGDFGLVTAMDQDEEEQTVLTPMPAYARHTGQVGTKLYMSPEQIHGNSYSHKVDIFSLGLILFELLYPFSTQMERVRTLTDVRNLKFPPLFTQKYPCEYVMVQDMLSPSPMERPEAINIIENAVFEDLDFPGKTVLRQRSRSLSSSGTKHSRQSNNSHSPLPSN
Procedure: Perform TR-FRET kinase assays in the absence or presence of inhibitors in a reaction buffer consisting of 50 mM HEPES, pH 7.5, 10 mM MgCb, 1.0 mM EGTA, and 0.01% Brij-35, and 100-200 nM GFP-eIF2a substrate. […] Add test compound, initiate the reaction by addition of enzyme, and incubate at room temperature for 45 minutes. Stop the reaction by addition of EDTA to a final concentration of 10 mM, add Terbium-labelled phospho-eIF2a antibody at a final concentration of 2 nM, and incubate for 90 minutes. Monitor the resulting fluorescence in an EnVison® Multilabel reader (PerkinElmer, Waltham, Mass.).

SMILES	inhibition of EIF2a in vitro (cellular assay) (HEK293-EGFP-eIF2a cells)	inhibition of isolated PERK enzyme activity in vitro [1]
CC(C)NC(=O)c1cc(-c2ccc3c(c2F)CCN3C(=O)C(O)c2cc(F)cc(F)c2)cnc1N (single isomer, unassigned) [Example 7, 2-amino-5-(1-(2-(3,5-difluorophenyl)-2-hydroxyacetyl)-4-fluoroindolin-5-yl)-N-isopropylnicotinamide]	inhibit EIF2a in vitro	inhibit isolated PERK enzyme activity in vitro
Cc1cn2c(C3CC(C)(O)C3)nc(-c3ccc4c(c3F)CCN4C(=O)C(O)c3ccccc3)c2c(N)n1 (single isomer, unassigned) [Example 11, 1-(5-(8-amino-3-(3-hydroxy-3-methylcyclobutyl)-6-methylimidazo[1,5-a]pyrazin-1-yl)-4-fluoroindolin-1-yl)-2-hydroxy-2-phenylethanone]	inhibit EIF2a in vitro	inhibit isolated PERK enzyme activity in vitro
Cc1cn2c(C3CC(C)(O)C3)nc(-c3ccc4c(c3F)CCN4C(=O)C(O)c3cccc(F)c3)c2c(N)n1 (single isomer, unassigned) [Example 13, 1-(5-(8-amino-3-(3-hydroxy-3-methylcyclobutyl)-6-methylimidazo[1,5-a]pyrazin-1-yl)-4-fluoroindolin-1-yl)-2-(3-fluorophenyl)-2-hydroxyethanone]	inhibit EIF2a in vitro	inhibit isolated PERK enzyme activity in vitro
Cc1cn2c(C3CC(C)(O)C3)nc(-c3ccc4c(c3F)CCN4C(=O)C(O)c3cccc(F)c3)c2c(N)n1 (single isomer, unassigned) [Example 14, 1-(5-(8-amino-3-(3-hydroxy-3-methylcyclobutyl)-6-methylimidazo[1,5-a]pyrazin-1-yl)-4-fluoroindolin-1-yl)-2-(3-fluorophenyl)-2-hydroxyethanone]	inhibit EIF2a in vitro	inhibit isolated PERK enzyme activity in vitro
Cc1cn2c(C3CC(C)(O)C3)nc(-c3ccc4c(c3F)CCN4C(=O)C(O)c3cc(F)cc(F)c3)c2c(N)n1 (single isomer, unassigned) [Example 15, 1-(5-(8-amino-3-(3-hydroxy-3-methylcyclobutyl)-6-methylimidazo[1,5-a]pyrazin-1-yl)-4-fluoroindolin-1-yl)-2-(3,5-difluorophenyl)-2-hydroxyethanone]	inhibit EIF2a in vitro	inhibit isolated PERK enzyme activity in vitro
Cc1cccc(C(O)C(=O)N2CCc3c2ccc(-c2nc(C4CC(C)(O)C4)n4cc(C)nc(N)c24)c3F)n1 (single isomer, unassigned) [Example 17, 1-(5-(8-amino-3-(3-hydroxy-3-methylcyclobutyl)-6-methylimidazo[1,5-a]pyrazin-1-yl)-4-fluoroindolin-1-yl)-2-hydroxy-2-(6-methylpyridin-2-yl)ethanone]	inhibit EIF2a in vitro	inhibit isolated PERK enzyme activity in vitro
Cc1cccc(C(O)C(=O)N2CCc3c2ccc(-c2nc(C4CC(C)(O)C4)n4cc(C)nc(N)c24)c3F)n1 (single isomer, unassigned) [Example 18, 1-(5-(8-amino-3-(3-hydroxy-3-methylcyclobutyl)-6-methylimidazo[1,5-a]pyrazin-1-yl)-4-fluoroindolin-1-yl)-2-hydroxy-2-(6-methylpyridin-2-yl)ethanone]	inhibit EIF2a in vitro	inhibit isolated PERK enzyme activity in vitro
Cc1nc(N)c2c(-c3ccc4c(c3)CCN4C(=O)C(O)c3cc(F)cc(C(F)(F)F)c3)cn(C)c2n1 (single isomer, unassigned) [Example 19, 1-(5-(4-amino-2,7-dimethyl-7H-pyrrolo[2,3-d]pyrimidin-5-yl)indolin-1-yl)-2-(3-fluoro-5-(trifluoromethyl)phenyl)-2-hydroxyethanone]	inhibit EIF2a in vitro	inhibit isolated PERK enzyme activity in vitro
